Results as given in PubChem BioAssay AID651784 (National Center for Advancing Translational Sciences (NCATS), 2012).
The inconclusive results got no clear call from the source; some entries with a clear call stand among them for comparison. A potency beside an inconclusive call is a rough fit, not a confirmed value. The source made the active and inactive calls. Calls come from the whole dose curve; as a rule, active = well fitted inhibition curve with a large enough effect; inconclusive = small, poorly fitted or top-dose-only effect; inactive = no such curve, though single readings can be large or run the other way.

test: Acumen qHTS Assay for Inhibitors of the mTORC1 Signaling Pathway in MEF (Tsc2-/-, p53-/-) Cells: Hit Validation; details: Acumen imaging;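 note: phospho-rpS6 Ser235/236 immunofluorescence normalized to propidium iodide cell count; nearly all actives have a fitted effect of over 65% in size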
Potency is the fitted concentration of half-maximal effect.

| SMILES | Potency |
| --- | --- |
| CCC1=Nc2cc(C(=O)NC3CCCC3)ccc2Sc2ccc(Cl)cc21 | inconclusive: 1.31 µM [inhibitor, full curve] |
| CC1=Nc2cc(C(=O)NCCc3ccc(Cl)cc3)ccc2Sc2ccc(C)cc21 | inconclusive: 4.14 µM [inhibitor, full curve, poor fit] |
| Cc1cccc(NC(=O)c2c(NC(=O)C(F)(F)F)sc3c2CCCCC3)c1 | inconclusive: 16.5 µM [inhibitor, single point] |
| N#Cc1c(C(F)(F)F)cc(-c2cccs2)nc1SCC(=O)Nc1cccc(Br)c1 | inconclusive: 26.1 µM [inhibitor, single point] |
| CCOc1cc(-c2nnc(SCC(=O)NCc3ccccc3)nc2-c2ccc(OC)c(OCC)c2)ccc1OC | active: 2.07 µM |
| CC(=O)C1=C(c2ccc(Cl)c(Cl)c2)N(C(C)=O)n2c(C)nnc2S1 | inconclusive: 16.5 µM [inhibitor, partial curve, poor fit] |
